Some of these results come from one statement about several compounds together.
System: MES SA, MES SA DX, and HEK 293T
Assay: Cytotoxicity (IC50), summary over MES SA, MES SA DX and HEK 293T
Type: cell-based, human

| Structure (SMILES) | IC50 against all three cell lines (summary of Table 4) |
| --- | --- |
| C/C(=C\c1csc(C)n1)[C@@H]1C[C@@H]2N[C@]2(C)CCC[C@H](C)[C@H](O)[C@@H](C)C(=O)C(C)(C)[C@@H](O)CC(=O)O1 [compound 10, (1S,3S,7S,10R,11S,12S,16R)-7,11-Dihydroxy-8,8,10,12,16-pentamethyl-3-[(1E)-1-(2-methyl-1,3-thiazol-4-yl)prop-1-en-2-yl]-4-oxa-17-azabicyclo[14.1.0]heptadecane-5,9-dione] | subnanomolar range |
| CSc1nc(/C=C(\C)[C@@H]2C[C@@H]3N(CCO)[C@]3(C)CCC[C@H](C)[C@H](O)[C@@H](C)C(=O)C(C)(C)[C@@H](O)CC(=O)O2)cs1 (stereo partly drawn) [compound 12, (1S,3S,7S,10R,11S,12S,16R)-7,11-Dihydroxy-17-(2-hydroxyethyl)-8,8,10,12,16-pentamethyl-3-{(1E)-1-[2-(methylsulfanyl)-1,3-thiazol-4-yl]prop-1-en-2-yl}-4-oxa-17-azabicyclo[14.1.0]-heptadecane-5,9-dione] | subnanomolar range |
| C/C(=C\c1csc(CN)n1)[C@@H]1C[C@@H]2N(CCO)[C@]2(C)CCC[C@H](C)[C@H](O)[C@@H](C)C(=O)C(C)(C)[C@@H](O)CC(=O)O1 (stereo partly drawn) [compound 13, (1S,3S,7S,10R,11S,12S,16R)-3-{(1E)-1-[2-(Aminomethyl)-1,3-thiazol-4-yl]prop-1-en-2-yl}-7,11-dihydroxy-17-(2-hydroxyethyl)-8,8,10,12,16-pentamethyl-4-oxa-17-azabicyclo[14.1.0]heptadecane-5,9-dione] | subnanomolar range |
| C/C(=C\c1nc2ccccc2s1)[C@@H]1C[C@@H]2N(CCO)[C@]2(C)CCC[C@H](C)[C@H](O)[C@@H](C)C(=O)C(C)(C)[C@@H](O)CC(=O)O1 (stereo partly drawn) [compound 24, (1S,3S,7S,10R,11S,12S,16R)-3-[(1E)-1-(1,3-Benzothiazol-2-yl)prop-1-en-2-yl]-7,11-dihydroxy-17-(2-hydroxyethyl)-8,8,10,12,16-pentamethyl-4-oxa-17-azabicyclo[14.1.0]heptadecane-5,9-dione] | subnanomolar range |
| CSc1nc(/C=C(\C)[C@@H]2C[C@@H]3N(CCN=[N+]=[N-])[C@]3(C)CCC[C@H](C)[C@H](O)[C@@H](C)C(=O)C(C)(C)[C@@H](O)CC(=O)O2)cs1 (stereo partly drawn) [compound 34, (1S,3S,7S,10R,11S,12S,16R)-17-(2-Azidoethyl)-7,11-dihydroxy-8,8,10,12,16-pentamethyl-3-{(1E)-1-[2-(methylsulfanyl)-1,3-thiazol-4-yl]prop-1-en-2-yl}-4-oxa-17-azabicyclo[14.1.0]heptadecane-5,9-dione] | subnanomolar range |
| CSc1nc(/C=C(\C)[C@@H]2C[C@@H]3N(CCN)[C@]3(C)CCC[C@H](C)[C@H](O)[C@@H](C)C(=O)C(C)(C)[C@@H](O)CC(=O)O2)cs1 (stereo partly drawn) [compound 37, (1S,3S,7S,10R,11S,12S,16R)-17-(2-Aminoethyl)-7,11-dihydroxy-8,8,10,12,16-pentamethyl-3-{(1E)-1-[2-(methylsulfanyl)-1,3-thiazol-4-yl]prop-1-en-2-yl}-4-oxa-17-azabicyclo[14.1.0]heptadecane-5,9-dione] | subnanomolar range |
| CSc1nc(/C=C(\C)[C@@H]2C[C@@H]3N(CC4CC4)[C@]3(C)CCC[C@H](C)[C@H](O)[C@@H](C)C(=O)C(C)(C)[C@@H](O)CC(=O)O2)cs1 (stereo partly drawn) [compound 38, (1S,3S,7S,10R,11S,12S,16R)-17-(Cyclopropylmethyl)-7,11-dihydroxy-8,8,10,12,16-pentamethyl-3-{(1E)-1-[2-(methylsulfanyl)-1,3-thiazol-4-yl]prop-1-en-2-yl}-4-oxa-17-azabicyclo-[14.1.0]heptadecane-5,9-dione] | subnanomolar range |

From patent US20210238187A1, “AZIRIDINE CONTAINING EPOTHILONE ANALOGS, METHODS OF SYNTHESIS, METHODS OF TREATMENT, AND DRUG CONJUGATES” (WILLIAM MARSH RICE UNIVERSITY, priority 2017, published 2021)
